The target of assay [1] is poly(A) binding protein 1 (PABP) (human (endogenous in T/C28a4)) (UniProt P11940). As to the kind of experiment: co-IP; lysates of the T/C28a4 chondrocyte line stably transfected with full-length ADAM15 or the ΔC mutant (10 mM HEPES pH 7.0, 150 mM NaCl, 5 mM EDTA, 1% Triton X-100); IP with mouse monoclonal or goat polyclonal anti-ADAM15, or with anti-PABP, and Protein G agarose, 90 min at 4°C; immunoblot; also with RNase I (5 U/ml) overnight.

The chains behind the UniProt entries cited, without tags or fusion partners. Where a name states a change or a piece, a line headed by the entry shows the natural chain unless it says otherwise.
UniProt P11940: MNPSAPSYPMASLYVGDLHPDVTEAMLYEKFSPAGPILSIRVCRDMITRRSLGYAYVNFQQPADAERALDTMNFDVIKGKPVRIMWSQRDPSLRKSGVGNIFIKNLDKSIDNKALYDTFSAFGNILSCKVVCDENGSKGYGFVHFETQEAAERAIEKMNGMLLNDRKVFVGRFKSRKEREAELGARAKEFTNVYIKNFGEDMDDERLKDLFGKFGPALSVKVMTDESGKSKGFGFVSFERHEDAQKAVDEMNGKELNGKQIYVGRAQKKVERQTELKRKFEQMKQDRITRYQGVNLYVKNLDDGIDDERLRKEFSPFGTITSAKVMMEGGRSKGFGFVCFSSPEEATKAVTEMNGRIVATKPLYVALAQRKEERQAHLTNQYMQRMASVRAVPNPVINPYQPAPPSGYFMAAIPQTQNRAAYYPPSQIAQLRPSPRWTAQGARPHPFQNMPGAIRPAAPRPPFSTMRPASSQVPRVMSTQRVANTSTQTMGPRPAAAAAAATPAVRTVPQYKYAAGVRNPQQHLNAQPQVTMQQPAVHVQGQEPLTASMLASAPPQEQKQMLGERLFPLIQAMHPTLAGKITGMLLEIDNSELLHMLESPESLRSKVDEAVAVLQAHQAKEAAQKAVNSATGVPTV
UniProt Q13444: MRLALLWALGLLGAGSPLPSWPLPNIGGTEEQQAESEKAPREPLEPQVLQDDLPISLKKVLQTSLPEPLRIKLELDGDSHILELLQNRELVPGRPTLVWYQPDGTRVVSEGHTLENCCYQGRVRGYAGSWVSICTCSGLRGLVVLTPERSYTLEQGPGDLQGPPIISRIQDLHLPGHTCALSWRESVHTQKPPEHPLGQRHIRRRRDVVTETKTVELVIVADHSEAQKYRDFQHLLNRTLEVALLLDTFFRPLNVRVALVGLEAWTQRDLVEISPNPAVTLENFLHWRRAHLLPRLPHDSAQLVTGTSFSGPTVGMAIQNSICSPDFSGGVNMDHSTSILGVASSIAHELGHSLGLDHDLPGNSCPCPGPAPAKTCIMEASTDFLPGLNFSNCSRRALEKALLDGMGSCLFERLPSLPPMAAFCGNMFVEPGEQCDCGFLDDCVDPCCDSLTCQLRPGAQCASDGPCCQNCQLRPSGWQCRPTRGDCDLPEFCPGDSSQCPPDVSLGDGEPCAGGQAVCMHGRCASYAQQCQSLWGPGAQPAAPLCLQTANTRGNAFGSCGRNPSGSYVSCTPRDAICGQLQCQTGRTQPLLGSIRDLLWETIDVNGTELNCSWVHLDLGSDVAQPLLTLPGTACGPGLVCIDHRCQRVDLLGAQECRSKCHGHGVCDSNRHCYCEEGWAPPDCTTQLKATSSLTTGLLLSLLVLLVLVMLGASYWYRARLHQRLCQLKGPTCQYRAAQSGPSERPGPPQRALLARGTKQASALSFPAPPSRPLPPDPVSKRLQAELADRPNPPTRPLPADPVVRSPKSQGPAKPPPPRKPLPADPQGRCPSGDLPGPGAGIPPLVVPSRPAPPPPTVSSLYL

In a further assay the target is full-length ADAM15 (UniProt Q13444). Described as above.

These are yes or no findings as the source states them, for the method shown. In cells and extracts the contact can be indirect. Binding can be weak; no strength is given.

With “full-length ADAM15 (from UniProt Q13444-2)”, in assay [1], the binding result is recorded as “binds”. As to “poly(A) binding protein 1 (PABP) (from UniProt P11940 1-636)”, the binding result with full-length ADAM15 is “binds”.

Source of the values: PMC6161846.
